Source: US7838495B2, “Compositions and methods of use of EPB1, and ErbB3 binding protein” (University of Maryland, Baltimore, priority 2007, dated 2010)
At least one structure is not confirmed: it was looked up by name or label, or the drawing left a doubt.

Columns and labels:
Assay type in all cases: cell-based, human
C81 cells = assay: Response of C81 transfectants to DHT and bicalutamide; conditions: EBP1 transfected C81 cells, 10 μM bicalutamide
Protocol: FIG. 4A-C. […] Equal numbers (5×10^4) of vector or EBP1 stably transfected cells were plated at Day 0 in complete media and viable cell numbers determined at the indicated times. Each point represents mean±S.E. of 3 wells. Representative of 3 experiments (Right panel). Colony growth in soft agar. C81 cells stably transfected with either pcDNA or EBP1 were plated in soft agar at the cell densities indicated and colony numbers assessed at Day 10. Each point represents mean±S.E. of 3 dishes. Data is representative of 3 experiments. B. (Left Panel) Response of EBP1 and vector transfected C81 cells to dihydrotestosterone (DHT). EBP1 and vector control C81 transfected cells and early passage LNCaP cells were plated in complete media at 5×10^3 cells/well in 96 well plates for one day. […] Total cell numbers were determined seven days later by MTT assays. […] Total cell numbers were assessed 7 days later by MTT assay. […] Total cell numbers were determined by MTT assays 5 days later. […]
Western Blot Analysis. […] For soft agar growth assays, increasing concentrations of cells (as indicated) were plated in 35 mm Petri dishes in 0.3% agar in complete media and colonies were counted after 10 days of incubation (21). […] Relative cell growth was determined using a Promega Proliferation Reagent (Promega, Madison Wis.) as per manufacturer's instructions with absorbance being read at […] using a Dynex plate reader. […]

PSA promoter = assay: ChIP assay of the PSA promoter in LNCaP EPB1 transfectants; conditions: serum-starved EPB1 transfectants, bicalutamide one hour
LNCaP cells = assay: Growth response of LNCaP vector controls and EBP1 transfectants to DHT and bicalutamide; conditions: 10 μM bicalutamide
Protocol: Cell Growth Assays: To measure growth in complete media, cells (2×10^4) were seeded in triplicate in individual wells of 12-well tissue culture plates in RPMI-1640 with 10% FBS and cultured for the indicated number of days. Cells were trypsinized, stained with Trypan Blue (0.4%), and counted in a hemacytometer. For soft agar growth assays, increasing concentrations of cells (as indicated) were plated in 35 mm Petri dishes in complete media and 0.3% Difco Bacto Agar over an 0.5% agar layer. Colonies were counted after 10 days of incubation. For studies assessing the effect of dihydrotestosterone (DHT) on cell growth, cells (2×10^4) were plated in 12-well plates in complete media. After a 24-hour attachment period, the medium was replaced with steroid-free medium [phenol red-free RPMI 1640 and 5% charcoal-stripped FBS (Sigma)] for 48 hours. The final concentration of testosterone in the steroid-reduced media was less than 5 pM. After 48 hours of steroid depletion, cells were re-fed with fresh steroid-reduced medium with or without the indicated concentrations of DHT and/or bicalutamide (10 μM), and total cell numbers were assessed 7 days later.

CC(O)(CS(=O)(=O)c1ccc(F)cc1)C(=O)Nc1ccc(C#N)c(C(F)(F)F)c1 (centres unmarked) [bicalutamide]
effect on DHT stimulated growth (C81 cells): suppressed
EPB1 recruitment to the PSA promoter (PSA promoter): recruited to the PSA promoter
HDAC2 recruitment to the PSA promoter (PSA promoter): recruited to the PSA promoter
effect on DHT-stimulated growth (LNCaP cells; LNCaP EBP1-transfected cells): completely suppressed
effect on DHT-stimulated growth (LNCaP cells; LNCaP vector controls): completely suppressed
